Test results from US20160068860A1, “TRANSGENIC PLANTS” (CONSEJO SUPERIOR DE INVESTIGACIONES CIENTIFICAS (CSIC), priority 2013, published 2016).
Numbering of substitutions follows the chain as printed. Numbers in names are those of the source. No constants are given. Whether binding was seen depends on the method and setting. Some binding calls cover weakened binding; strength is not graded here. Values belong to the binder of their own block, whether it stands above or below them.

Chains of the proteins cited; added tags and fusions are not shown. Residues count along the entry.
UniProt Q9CAJ0, residues 23-511: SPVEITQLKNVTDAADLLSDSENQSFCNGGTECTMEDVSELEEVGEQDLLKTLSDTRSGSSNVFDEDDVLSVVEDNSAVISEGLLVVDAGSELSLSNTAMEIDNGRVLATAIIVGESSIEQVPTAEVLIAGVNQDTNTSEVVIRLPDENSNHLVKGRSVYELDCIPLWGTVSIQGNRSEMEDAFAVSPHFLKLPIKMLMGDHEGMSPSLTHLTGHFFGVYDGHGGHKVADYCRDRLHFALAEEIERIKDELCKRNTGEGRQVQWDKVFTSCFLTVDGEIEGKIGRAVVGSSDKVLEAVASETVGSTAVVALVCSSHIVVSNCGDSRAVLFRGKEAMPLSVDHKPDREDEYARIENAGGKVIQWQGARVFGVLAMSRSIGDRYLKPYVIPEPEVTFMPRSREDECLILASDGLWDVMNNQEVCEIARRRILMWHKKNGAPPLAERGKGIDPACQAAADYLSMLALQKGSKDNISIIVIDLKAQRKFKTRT

How the values were obtained:
[1] = molecular target: HAB1 (clade A protein phosphatase 2C) (Arabidopsis thaliana) (UniProt Q9CAJ0); experiment: BiFC in N. benthamiana epidermal cells
[2] = molecular target: HAB1 (clade A protein phosphatase 2C) (Arabidopsis thaliana) (UniProt Q9CAJ0); experiment: yeast two-hybrid growth assay with HAB1 prey (PYL4-HAB1 interaction is ABA-dependent in yeast)

- binding [1]: binds
B1: AtPYL4 wild type polypeptide (At2g38310) (receptor)
chain: MLAVHRPSSAVSDGDSVQIPMMIASFQKRFPSLSRDSTAARFHTHEVGPNQCCSAVIQEISAPISTVWSVVRRFDNPQAYKHFLKSCSVIGGDGDNVGSLRQVHVVSGLPAASSTERLDILDDERHVISFSVVGGDHRLSNYRSVTTLHPSPISGTVVVESYVVDVPPGNTKEETCDFVDVIVRCNLQSLAKIAENTAAESKKKMSL

- binding [2]: binds
B2: PYL4H82R V97A (AtPYL H82 and V97A) (receptor)
chain: B1 chain with H82R, V97A

- binding [2]: binds
B3: PYL4C176R F130Y (AtPYL F130Y and C176R) (receptor)
chain: B1 chain with F130Y, C176R

- binding [1]: binds
- binding [2]: binds
B4: PYL4A194T (AtPYL A194T) (receptor)
chain: B1 chain with A194T

- binding [2]: binds
B5: PYL4V97A (AtPYL V97A) (receptor)
chain: B1 chain with V97A
